One experiment addresses T1, GST-Kaiso (human) (UniProt Q86T24).
T1 sequence: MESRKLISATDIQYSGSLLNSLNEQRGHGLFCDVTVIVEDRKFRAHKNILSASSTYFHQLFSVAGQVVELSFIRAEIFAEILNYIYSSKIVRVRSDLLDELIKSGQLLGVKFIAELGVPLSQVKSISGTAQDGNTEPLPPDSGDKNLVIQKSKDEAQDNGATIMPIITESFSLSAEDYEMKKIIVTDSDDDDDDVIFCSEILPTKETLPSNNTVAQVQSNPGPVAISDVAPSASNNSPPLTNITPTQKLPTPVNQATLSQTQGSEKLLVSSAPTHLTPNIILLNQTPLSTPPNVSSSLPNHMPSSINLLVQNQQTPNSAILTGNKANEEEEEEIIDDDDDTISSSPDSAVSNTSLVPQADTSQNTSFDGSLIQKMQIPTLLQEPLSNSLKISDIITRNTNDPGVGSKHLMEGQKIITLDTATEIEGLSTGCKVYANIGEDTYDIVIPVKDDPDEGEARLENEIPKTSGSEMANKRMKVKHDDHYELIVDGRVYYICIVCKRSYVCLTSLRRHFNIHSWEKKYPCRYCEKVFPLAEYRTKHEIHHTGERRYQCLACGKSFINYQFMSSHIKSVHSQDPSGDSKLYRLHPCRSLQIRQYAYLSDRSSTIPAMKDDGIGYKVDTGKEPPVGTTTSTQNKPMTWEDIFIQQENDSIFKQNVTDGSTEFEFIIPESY
The experiment can be described thus: pull-down; GST-Kaiso and Flag-14-3-3 members co-transfected in MGC803 cells; lysate incubated with Glutathione Sepharose beads at 4 °C overnight, six washes; blots with GST and Flag antibodies.

Amino acid sequences for entries named in this document (tags omitted).
UniProt P62258: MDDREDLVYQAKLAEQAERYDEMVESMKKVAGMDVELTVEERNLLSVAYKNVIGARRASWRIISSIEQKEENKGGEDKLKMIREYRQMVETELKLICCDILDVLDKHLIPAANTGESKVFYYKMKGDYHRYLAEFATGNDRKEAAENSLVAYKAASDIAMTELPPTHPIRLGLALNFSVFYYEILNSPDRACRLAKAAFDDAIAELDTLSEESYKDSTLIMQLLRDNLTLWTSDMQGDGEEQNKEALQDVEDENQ
UniProt P63104: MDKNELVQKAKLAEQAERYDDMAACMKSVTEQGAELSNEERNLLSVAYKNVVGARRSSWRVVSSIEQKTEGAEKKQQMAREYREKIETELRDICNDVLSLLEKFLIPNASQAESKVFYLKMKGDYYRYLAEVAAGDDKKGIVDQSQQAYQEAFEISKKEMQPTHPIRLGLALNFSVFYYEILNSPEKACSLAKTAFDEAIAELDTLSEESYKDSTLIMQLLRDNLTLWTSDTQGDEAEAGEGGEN

For experiment [1], the target named is T2, endogenous Kaiso (human (endogenous in MGC803)) (UniProt Q86T24).
T2 sequence: T1 sequence
The experiment can be described thus: co-IP; endogenous proteins, whole cell lysate of MGC803 cells (for P120ctn with and without 14-3-3σ overexpression); anti-Kaiso or other antibodies plus protein A/G Sepharose overnight at 4 °C, six washes; IgG as negative control.

Experiment [2] addresses T2, endogenous Kaiso (human (endogenous in MGC803)). The experiment is described as follows: co-IP; cytoplasmic and nuclear lysates of MGC803 cells with 14-3-3σ overexpression; anti-Kaiso antibody plus protein A/G Sepharose for 8 h at 4 °C.
The target is the same in experiment [3]. The experiment is described as follows: co-IP; endogenous proteins, whole cell lysate of MGC803 cells (for P120ctn with and without 14-3-3σ overexpression); anti-Kaiso or other antibodies plus protein A/G Sepharose overnight at 4 °C, six washes; IgG as negative control. This is another data set of the same source.

These are yes or no findings as the source states them, for the method shown. Binding seen in cells or lysates may run through a third protein. Some entries that bind do so weakly or less than the wild type. For part of these data: Tags and fused reporters may be left off the sequences shown.

As for “Flag-14-3-3ε (from UniProt P62258 1-255)”, in the experiment with GST-Kaiso (human), the binding entry was “binds”. For “endogenous 14-3-3ε (from UniProt P62258 1-255)”, in experiment [1], the binding entry is recorded as “binds”. “Flag-14-3-3ζ (from UniProt P63104 1-245)”: the binding result in the experiment with GST-Kaiso (human) is on record as “binds”.

Consider “endogenous 14-3-3ζ (from UniProt P63104 1-245)”, for which the binding result in experiment [1] is listed as “binds”.

B1: endogenous P120ctn (protein, UniProt O60716 1-968)
chain: MDDSEVESTASILASVKEQEAQFEKLTRALEEERRHVSAQLERVRVSPQDANPLMANGTLTRRHQNGRFVGDADLERQKFSDLKLNGPQDHSHLLYSTIPRMQEPGQIVETYTEEDPEGAMSVVSVETSDDGTTRRTETTVKKVVKTVTTRTVQPVAMGPDGLPVDASSVSNNYIQTLGRDFRKNGNGGPGPYVGQAGTATLPRNFHYPPDGYSRHYEDGYPGGSDNYGSLSRVTRIEERYRPSMEGYRAPSRQDVYGPQPQVRVGGSSVDLHRFHPEPYGLEDDQRSMGYDDLDYGMMSDYGTARRTGTPSDPRRRLRSYEDMIGEEVPSDQYYWAPLAQHERGSLASLDSLRKGGPPPPNWRQPELPEVIAMLGFRLDAVKSNAAAYLQHLCYRNDKVKTDVRKLKGIPVLVGLLDHPKKEVHLGACGALKNISFGRDQDNKIAIKNCDGVPALVRLLRKARDMDLTEVITGTLWNLSSHDSIKMEIVDHALHALTDEVIIPHSGWEREPNEDCKPRHIEWESVLTNTAGCLRNVSSERSEARRKLRECDGLVDALIFIVQAEIGQKDSDSKLVENCVCLLRNLSYQVHREIPQAERYQEAAPNVANNTGPHAASCFGAKKGKDEWFSRGKKPIEDPANDTVDFPKRTSPARGYELLFQPEVVRIYISLLKESKTPAILEASAGAIQNLCAGRWTYGRYIRSALRQEKALSAIADLLTNEHERVVKAASGALRNLAVDARNKELIGKHAIPNLVKNLPGGQQNSSWNFSEDTVISILNTINEVIAENLEAAKKLRETQGIEKLVLINKSGNRSEKEVRAAALVLQTIWGYKELRKPLEKEGWKKSDFQVNLNNASRSQSSHSYDDSTLPLIDRNQKSDKKPDREEIQMSNMGSNTKSLDNNYSTPNERGDHNRTLDRSGDLGDMEPLKGTTPLMQDEGQESLEEELDVLVLDDEGGQVSYPSMQKI
With B1, the binding result in experiment [2] and in experiment [3] was “binds” in each case.

B2: Flag-14-3-3γ (protein, UniProt P61981 1-247)
chain: MVDREQLVQKARLAEQAERYDDMAAAMKNVTELNEPLSNEERNLLSVAYKNVVGARRSSWRVISSIEQKTSADGNEKKIEMVRAYREKIEKELEAVCQDVLSLLDNYLIKNCSETQYESKVFYLKMKGDYYRYLAEVATGEKRATVVESSEKAYSEAHEISKEHMQPTHPIRLGLALNYSVFYYEIQNAPEQACHLAKTAFDDAIAELDTLNEDSYKDSTLIMQLLRDNLTLWTSDQQDDDGGEGNN
For B2, in the experiment with GST-Kaiso (human), the binding entry was “binds”.

B3: endogenous 14-3-3γ (protein, UniProt P61981 1-247)
chain: B2 chain
As for B3, the binding entry in experiment [3] is “binds”.

B4: Flag-14-3-3η (protein, UniProt Q04917 1-246)
chain: MGDREQLLQRARLAEQAERYDDMASAMKAVTELNEPLSNEDRNLLSVAYKNVVGARRSSWRVISSIEQKTMADGNEKKLEKVKAYREKIEKELETVCNDVLSLLDKFLIKNCNDFQYESKVFYLKMKGDYYRYLAEVASGEKKNSVVEASEAAYKEAFEISKEQMQPTHPIRLGLALNFSVFYYEIQNAPEQACLLAKQAFDDAIAELDTLNEDSYKDSTLIMQLLRDNLTLWTSDQQDEEAGEGN
As to B4, the binding entry with GST-Kaiso (human) is recorded as “binds weakly”.

These data come from paper PMC9441001.
